Assay results: PMC4959778
Results are given in words; binding and its absence hold for the method and conditions named. Binding seen in cells or lysates may run through a third protein. Some results given as binding are weak or reduced against the parent protein; the word gives no strength. For part of these data: Where a sequence is shown, tags or fusion partners need not be part of it. One block for each molecule: values may come before it.

What was measured:
FLAG-TBK1 = molecular target: T1, FLAG-TBK1 (UniProt Q9UHD2); experiment: co-IP; reciprocal: FLAG-TBK1 or FLAG-TBK1 K38A precipitated with anti-FLAG from HEK 293T lysates with ectopic SNRNP200, uninfected and SeV-infected cells; blot with anti-SNRNP200
T1 sequence: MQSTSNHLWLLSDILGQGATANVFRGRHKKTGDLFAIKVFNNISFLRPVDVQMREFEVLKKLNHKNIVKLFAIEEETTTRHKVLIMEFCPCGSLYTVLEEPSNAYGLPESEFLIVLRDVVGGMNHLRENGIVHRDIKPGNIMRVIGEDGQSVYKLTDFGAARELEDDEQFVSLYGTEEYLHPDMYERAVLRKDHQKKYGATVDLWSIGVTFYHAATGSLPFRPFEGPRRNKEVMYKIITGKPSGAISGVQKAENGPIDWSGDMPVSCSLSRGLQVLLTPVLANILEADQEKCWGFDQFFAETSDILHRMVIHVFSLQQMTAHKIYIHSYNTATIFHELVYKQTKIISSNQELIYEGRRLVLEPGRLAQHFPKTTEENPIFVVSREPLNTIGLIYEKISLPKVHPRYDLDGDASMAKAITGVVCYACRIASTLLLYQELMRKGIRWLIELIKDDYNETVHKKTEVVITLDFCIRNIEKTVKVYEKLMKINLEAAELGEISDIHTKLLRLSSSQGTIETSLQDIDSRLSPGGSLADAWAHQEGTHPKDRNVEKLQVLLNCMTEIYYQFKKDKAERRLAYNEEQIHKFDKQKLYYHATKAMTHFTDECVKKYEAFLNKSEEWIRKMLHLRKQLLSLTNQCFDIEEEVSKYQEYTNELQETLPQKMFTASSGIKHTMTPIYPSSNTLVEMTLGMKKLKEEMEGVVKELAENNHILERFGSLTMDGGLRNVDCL

FLAG-TBK1 K38A mutant = molecular target: T2, FLAG-TBK1 K38A mutant (UniProt Q9UHD2); experiment: as above
T2 sequence: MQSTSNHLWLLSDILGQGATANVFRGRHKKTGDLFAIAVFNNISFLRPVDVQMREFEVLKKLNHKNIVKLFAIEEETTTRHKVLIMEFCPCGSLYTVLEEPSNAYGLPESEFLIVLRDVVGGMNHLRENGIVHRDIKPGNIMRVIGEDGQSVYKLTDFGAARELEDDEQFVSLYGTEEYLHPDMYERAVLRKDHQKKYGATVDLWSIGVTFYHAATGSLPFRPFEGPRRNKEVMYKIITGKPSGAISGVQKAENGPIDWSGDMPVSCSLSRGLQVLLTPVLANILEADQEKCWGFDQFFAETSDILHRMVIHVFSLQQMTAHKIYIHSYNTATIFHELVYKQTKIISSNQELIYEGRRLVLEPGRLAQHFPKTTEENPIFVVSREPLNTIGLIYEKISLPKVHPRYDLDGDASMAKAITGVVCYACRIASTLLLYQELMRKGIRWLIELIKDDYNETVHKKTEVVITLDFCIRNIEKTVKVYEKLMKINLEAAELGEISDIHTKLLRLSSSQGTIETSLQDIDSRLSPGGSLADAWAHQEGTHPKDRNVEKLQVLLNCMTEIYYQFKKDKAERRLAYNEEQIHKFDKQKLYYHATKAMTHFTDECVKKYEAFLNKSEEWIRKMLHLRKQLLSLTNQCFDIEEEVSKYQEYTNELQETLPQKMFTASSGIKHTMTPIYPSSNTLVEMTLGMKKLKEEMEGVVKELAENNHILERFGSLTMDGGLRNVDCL

[1] = molecular target: T3, TBK1 (endogenous, A549) (human (endogenous in A549)) (UniProt Q9UHD2); experiment: co-IP; endogenous proteins, A549 cells untreated or infected with SeV for 16 hours; lysates precipitated with anti-TBK1 or control IgG and protein G sepharose beads; blot for TBK1 and SNRNP200
T3 sequence: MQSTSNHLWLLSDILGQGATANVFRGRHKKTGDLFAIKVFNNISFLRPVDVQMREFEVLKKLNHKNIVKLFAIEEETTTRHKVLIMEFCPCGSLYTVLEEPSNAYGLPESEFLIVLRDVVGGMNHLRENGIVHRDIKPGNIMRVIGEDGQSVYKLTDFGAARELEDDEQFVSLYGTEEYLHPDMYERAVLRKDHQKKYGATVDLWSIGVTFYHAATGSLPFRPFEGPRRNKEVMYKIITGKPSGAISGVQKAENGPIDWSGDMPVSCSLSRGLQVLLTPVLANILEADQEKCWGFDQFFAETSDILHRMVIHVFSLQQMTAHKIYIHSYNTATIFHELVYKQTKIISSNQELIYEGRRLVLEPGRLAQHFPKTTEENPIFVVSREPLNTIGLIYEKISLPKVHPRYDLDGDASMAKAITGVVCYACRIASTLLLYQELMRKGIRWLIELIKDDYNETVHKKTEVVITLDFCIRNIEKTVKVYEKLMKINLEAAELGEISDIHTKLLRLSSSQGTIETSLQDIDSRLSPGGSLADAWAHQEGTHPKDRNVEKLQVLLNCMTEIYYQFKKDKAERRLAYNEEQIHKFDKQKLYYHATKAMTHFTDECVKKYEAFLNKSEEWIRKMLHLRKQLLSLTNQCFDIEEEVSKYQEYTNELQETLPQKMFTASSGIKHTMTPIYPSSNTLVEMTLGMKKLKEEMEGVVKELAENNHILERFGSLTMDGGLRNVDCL

FLAG-SNRNP200 (human) = FLAG-SNRNP200 (human) (UniProt O75643); experiment: co-IP; FLAG-SNRNP200 constructs precipitated with M2 anti-FLAG affinity gel overnight from pre-cleared HEK 293T lysates (10 mM Tris-HCl, 100 mM NaCl, 0.5% Triton X-100, pH 7.6; 1 mg/ml) after 16 hours of SeV infection; five washes, elution with FLAG peptide; blot with anti-TBK1
[2] = molecular target: T4, FLAG-SNRNP200 Sec63-1 domain (human) (UniProt O75643); experiment: as above
T4 sequence: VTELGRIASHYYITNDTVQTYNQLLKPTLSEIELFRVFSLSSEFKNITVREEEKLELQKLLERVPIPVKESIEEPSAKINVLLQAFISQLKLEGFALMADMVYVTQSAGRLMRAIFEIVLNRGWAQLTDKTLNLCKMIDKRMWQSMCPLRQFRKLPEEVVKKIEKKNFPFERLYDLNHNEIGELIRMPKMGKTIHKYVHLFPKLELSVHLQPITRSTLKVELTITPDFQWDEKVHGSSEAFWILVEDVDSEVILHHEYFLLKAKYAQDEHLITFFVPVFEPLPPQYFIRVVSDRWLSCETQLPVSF

[3] = molecular target: FLAG-SNRNP200 S1087L mutant (human) (UniProt O75643); experiment: as above

- binding (FLAG-TBK1): binds
- binding (FLAG-TBK1 K38A mutant): binds
Molecule: SNRNP200 (ectopically expressed, no tag named) (from UniProt O75643 1-2136)

- binding [1]: binds
Molecule: SNRNP200 (endogenous, A549) (from UniProt O75643 1-2136)

- binding (FLAG-SNRNP200 (human)): binds
- binding [2]: binds
- binding [3]: binds
B1: TBK1 (endogenous, HEK 293T) (enzyme, UniProt Q9UHD2 1-729)
chain: MQSTSNHLWLLSDILGQGATANVFRGRHKKTGDLFAIKVFNNISFLRPVDVQMREFEVLKKLNHKNIVKLFAIEEETTTRHKVLIMEFCPCGSLYTVLEEPSNAYGLPESEFLIVLRDVVGGMNHLRENGIVHRDIKPGNIMRVIGEDGQSVYKLTDFGAARELEDDEQFVSLYGTEEYLHPDMYERAVLRKDHQKKYGATVDLWSIGVTFYHAATGSLPFRPFEGPRRNKEVMYKIITGKPSGAISGVQKAENGPIDWSGDMPVSCSLSRGLQVLLTPVLANILEADQEKCWGFDQFFAETSDILHRMVIHVFSLQQMTAHKIYIHSYNTATIFHELVYKQTKIISSNQELIYEGRRLVLEPGRLAQHFPKTTEENPIFVVSREPLNTIGLIYEKISLPKVHPRYDLDGDASMAKAITGVVCYACRIASTLLLYQELMRKGIRWLIELIKDDYNETVHKKTEVVITLDFCIRNIEKTVKVYEKLMKINLEAAELGEISDIHTKLLRLSSSQGTIETSLQDIDSRLSPGGSLADAWAHQEGTHPKDRNVEKLQVLLNCMTEIYYQFKKDKAERRLAYNEEQIHKFDKQKLYYHATKAMTHFTDECVKKYEAFLNKSEEWIRKMLHLRKQLLSLTNQCFDIEEEVSKYQEYTNELQETLPQKMFTASSGIKHTMTPIYPSSNTLVEMTLGMKKLKEEMEGVVKELAENNHILERFGSLTMDGGLRNVDCL
